In publication PMC10954487:
These are yes or no findings as the source states them, for the method shown. Binding seen in cells or lysates may run through a third protein. Some entries that bind do so weakly or less than the wild type.

Amino acid sequences for entries named in this document (tags omitted).
UniProt O00571: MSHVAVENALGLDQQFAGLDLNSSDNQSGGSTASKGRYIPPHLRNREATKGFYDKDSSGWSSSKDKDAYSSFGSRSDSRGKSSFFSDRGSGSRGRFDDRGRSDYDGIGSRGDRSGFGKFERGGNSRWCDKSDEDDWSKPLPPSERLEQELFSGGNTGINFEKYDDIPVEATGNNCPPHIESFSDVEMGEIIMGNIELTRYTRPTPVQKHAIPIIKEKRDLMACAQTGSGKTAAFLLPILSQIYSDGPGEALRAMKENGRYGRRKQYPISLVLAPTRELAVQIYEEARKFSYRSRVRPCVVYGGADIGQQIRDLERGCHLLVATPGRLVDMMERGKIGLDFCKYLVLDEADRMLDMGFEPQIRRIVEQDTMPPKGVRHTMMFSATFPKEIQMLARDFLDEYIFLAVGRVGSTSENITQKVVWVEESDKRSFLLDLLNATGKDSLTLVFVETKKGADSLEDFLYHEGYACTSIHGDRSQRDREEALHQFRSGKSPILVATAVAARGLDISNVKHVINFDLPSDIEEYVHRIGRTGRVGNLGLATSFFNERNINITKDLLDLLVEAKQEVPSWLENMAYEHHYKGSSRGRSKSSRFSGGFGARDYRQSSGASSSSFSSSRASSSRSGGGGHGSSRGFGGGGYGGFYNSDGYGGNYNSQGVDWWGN

Target: HA-hnRNPK (hemagglutinin (HA3)-tagged heterogeneous nuclear ribonucleoprotein K, wild type) (UniProt P61978)
Assay: co-IP; […] (NaCl 100 mM, EDTA 2 mM, Tris-HCl 50 mM pH 7.5, Triton X-100 1%); […]

| binding | Substance |
| --- | --- |
| binds | Human antigen R (HuR) (from UniProt Q15717 1-326) |
| binds | DDX3 (from UniProt O00571 1-662) |
